Measurements published in patent US8822410B2, “Tympanic membrane permeating ear drops and uses thereof” (Children's Medical Center Corporation, priority 2008, dated 2014).

Columns and labels:
[1] = Ciprofloxacin levels in middle ear fluid and plasma after gel treatment; type: in vivo, chinchilla
[2] = chinchilla, not told, 48 h

O=C(O)c1cn(C2CC2)c2cc(N3CCNCC3)c(F)cc2c1=O [ciprofloxacin]
concentration at 48 h ([1]; male, chinchilla, in vivo): < 500 ng/mL | plasma ciprofloxacin ([1]; superior sagital sinus, 2 and 5 days post-treatment, detection limit approximately 100 ng/mL): no detectable ciprofloxacin | Trans-TM ciprofloxacin flux versus target MIC [2]: failed to reach MIC-levels within 48 hours
